Measured values reported in US20220389106A1 (University of Texas, published 2022).
No constants are given. Whether binding was seen depends on the method and setting. Some entries that bind do so weakly or less than the wild type. Blank lines part the entries; values can stand above or below the binder they belong to.

By UniProt entry, the sequences of proteins in these tests, tags left out. Residues count along the entry.
UniProt Q5JZY3, residues 34-1008: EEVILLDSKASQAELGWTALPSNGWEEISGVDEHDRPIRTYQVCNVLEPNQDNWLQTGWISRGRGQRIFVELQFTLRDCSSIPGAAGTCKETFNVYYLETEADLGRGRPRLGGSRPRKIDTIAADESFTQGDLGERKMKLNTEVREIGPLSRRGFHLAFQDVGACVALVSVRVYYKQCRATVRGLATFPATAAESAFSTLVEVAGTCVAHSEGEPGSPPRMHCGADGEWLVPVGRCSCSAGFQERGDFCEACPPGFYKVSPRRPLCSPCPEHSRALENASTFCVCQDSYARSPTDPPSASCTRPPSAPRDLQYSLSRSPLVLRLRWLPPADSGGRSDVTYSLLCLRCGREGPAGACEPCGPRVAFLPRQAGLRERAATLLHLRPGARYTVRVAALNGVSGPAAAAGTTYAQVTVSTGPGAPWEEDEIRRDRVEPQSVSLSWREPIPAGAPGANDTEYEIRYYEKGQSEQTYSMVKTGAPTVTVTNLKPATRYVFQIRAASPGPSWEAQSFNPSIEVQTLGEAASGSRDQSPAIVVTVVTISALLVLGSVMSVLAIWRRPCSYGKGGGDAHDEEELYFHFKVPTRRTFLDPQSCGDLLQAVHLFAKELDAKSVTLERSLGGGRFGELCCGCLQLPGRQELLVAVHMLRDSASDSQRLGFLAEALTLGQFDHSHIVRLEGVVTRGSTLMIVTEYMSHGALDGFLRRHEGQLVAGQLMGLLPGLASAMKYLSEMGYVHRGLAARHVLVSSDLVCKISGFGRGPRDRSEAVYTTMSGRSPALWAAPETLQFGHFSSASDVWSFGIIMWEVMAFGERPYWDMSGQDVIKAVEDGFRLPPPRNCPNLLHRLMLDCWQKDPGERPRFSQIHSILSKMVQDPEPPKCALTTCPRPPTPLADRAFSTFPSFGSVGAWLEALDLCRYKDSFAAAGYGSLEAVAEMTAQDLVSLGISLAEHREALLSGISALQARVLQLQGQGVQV

Key:
[1] = target: hu-EphA10 expressed on cells (human) (UniProt Q5JZY3); assay: flow cytometry and immunofluorescence staining, BT-549 hu EphA10 stable cells vs BT-549 mock
[2] = target: hu-EphA10 expressed on cells (human) (UniProt Q5JZY3); assay: in vivo antibody tracking, nude mice bearing MDA-MB-231 tumors expressing hu-EphA10, IVIS fluorescence

- binding [1]: binds
- binding [2]: binds
B1: anti-hu-EphA10 antibody Clone 8 (antibody, IgG1, V domains shown)
VH: QVQLQQSGPELVKPGPLVKISCKASGYTFTSYDITWVKQRPGQGLEWIGWIYPGDGSTKYNEKFKGKATLTADKSSSTAYMQLSSLTSENSAVYFCARGGRLPYFDYWGQGTTLTVSS
VL: NIVLTQSPASLAVSLGQRATISCRASESVDSYGNSFMHWYQQKPGQPPKLLIYLASNLESAVPARFSGSGSRTDFTLTIDPVEADDAATYYCQQNNEYPWTFGGGTKLEIK

- binding [1]: binds
- binding [2]: binds
B2: anti-hu-EphA10 antibody Clone 4 (antibody, IgG1, V domains shown)
VH: EVKLEESGGGLVQPGGSMKLSCVASGFTFSYYWMNWVRQSPEKGLEWVAEIRLKSNNYATHYAESVKGRFTISRDDSKSSVYLQMNNLRAEDSGIYYCTFYYGSSAWFAYWGQGTLVTVSA
VL: DIQMTQSPASLSASVGETVTITCRASENIYSYLAWYQQKQGKSPQLLVYNVKTLTEGVPSRFSGSGSGTQFSLKIDSLQPEDFGSYYCQHHYVTPPTFGAGTKLELK

- binding [1]: binds
- binding [2]: binds
B3: anti-hu-EphA10 antibody Clone 9 (antibody, IgG1, V domains shown)
VH: QVQLQQSGAELMKPGASVKISCKATGYTFSTYWIEWVKQRPGHGLEWIGEILPGSGRTNYKEKFKDKATFTANTSSTTAYMQLSSLTSEDSAVYYCAIDWYWGQGTTLTVSS
VL: QIVLTQSPAIMSASPGEKVTITCSASSSVSYMYWFQQKPGTSPKLWIYSTSNLASGVPARFSGSGSGTSYSLTISRMEAEDAATYYCQQRNSYPPTFGGGTKLEIK
notes: also called anti-EphA10 (clone 9); anti-EphA10 (clone 9)-pHrodo
